# In publication PMC3548902:
# These are yes or no findings as the source states them, for the method shown. In cells and extracts the contact can be indirect. Some entries that bind do so weakly or less than the wild type. Where a sequence is shown, tags or fusion partners need not be part of it.
# T1: flag-tagged full-length Vascular Adhesion Protein-1 (VAP-1) (human) (UniProt Q16853)
# T1 sequence: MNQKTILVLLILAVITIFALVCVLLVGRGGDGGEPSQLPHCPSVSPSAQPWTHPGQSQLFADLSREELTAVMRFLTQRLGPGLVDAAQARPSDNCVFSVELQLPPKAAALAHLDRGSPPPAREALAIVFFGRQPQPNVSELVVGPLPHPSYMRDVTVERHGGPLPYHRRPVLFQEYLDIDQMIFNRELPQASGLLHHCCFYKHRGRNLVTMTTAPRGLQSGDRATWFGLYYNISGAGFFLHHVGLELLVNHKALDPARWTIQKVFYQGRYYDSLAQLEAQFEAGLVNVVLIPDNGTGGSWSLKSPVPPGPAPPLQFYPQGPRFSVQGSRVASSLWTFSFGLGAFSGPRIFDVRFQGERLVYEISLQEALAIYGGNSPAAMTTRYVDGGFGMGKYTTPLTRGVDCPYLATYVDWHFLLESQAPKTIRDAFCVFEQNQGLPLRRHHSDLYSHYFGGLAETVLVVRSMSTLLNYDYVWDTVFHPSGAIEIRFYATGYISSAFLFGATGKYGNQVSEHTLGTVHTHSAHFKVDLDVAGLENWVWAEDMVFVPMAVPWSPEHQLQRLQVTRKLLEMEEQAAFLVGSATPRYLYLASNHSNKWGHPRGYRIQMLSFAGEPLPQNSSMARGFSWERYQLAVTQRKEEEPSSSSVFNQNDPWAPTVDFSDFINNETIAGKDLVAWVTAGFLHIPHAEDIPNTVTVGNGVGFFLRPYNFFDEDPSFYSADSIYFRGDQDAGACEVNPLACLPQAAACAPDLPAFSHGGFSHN
# B1: myc-tagged VAP-1Δ3 (alternatively spliced shorter isoform of VAP-1 lacking exon 3) (protein, UniProt Q16853-2 1-634)
# chain: MNQKTILVLLILAVITIFALVCVLLVGRGGDGGEPSQLPHCPSVSPSAQPWTHPGQSQLFADLSREELTAVMRFLTQRLGPGLVDAAQARPSDNCVFSVELQLPPKAAALAHLDRGSPPPAREALAIVFFGRQPQPNVSELVVGPLPHPSYMRDVTVERHGGPLPYHRRPVLFQEYLDIDQMIFNRELPQASGLLHHCCFYKHRGRNLVTMTTAPRGLQSGDRATWFGLYYNISGAGFFLHHVGLELLVNHKALDPARWTIQKVFYQGRYYDSLAQLEAQFEAGLVNVVLIPDNGTGGSWSLKSPVPPGPAPPLQFYPQGPRFSVQGSRVASSLWTFSFGLGAFSGPRIFDVRFQGERLVYEISLQEALAIYGGNSPAAMTTRYVDGGFGMGKYTTPLTRGVDCPYLATYVDWHFLLESQAPKTIRDAFCVFEQNQGLPLRRHHSDLYSHYFGGLAETVLVVRSMSTLLNYDYVWDTVFHPSGAIEIRFYATGYISSAFLFGATGKYGNQVSEHTLGTVHTHSAHFKVDLDVAGLENWVWAEDMVFVPMAVPWSPEHQLQRLQVTRKLLEMEEQAAFLVGSATPRYLYLASNHSNKWGHPRGYRIQMLSFAGEPLPQNSSMARGFSWERIWWPG
# Target: T1, flag-tagged full-length Vascular Adhesion Protein-1 (VAP-1) (human)
# Assay: co-IP; HEK293 cells co-transfected with flag-VAP-1 and myc-VAP-1Δ3; lysis buffer 50 mM Tris-HCl, 150 mM NaCl, 1% Nonidet P-40; precipitated with anti-flag mAb M2 on Protein G beads, 1 h at +4°C; blotted with anti-myc
binder,measurement,value
B1,binding,binds
